Measured values: PubChem BioAssay AID2549 (National Center for Advancing Translational Sciences (NCATS), 2010)
Several values for one entry are separate records, joined by “and”; a condition that tells them apart may be missing. Equal values may be shown once. Out of some 240,000 compounds screened, about 1,300 (0.54%) were called active. The shares of active, inactive and inconclusive entries below differ from those in the screen. Calls follow the shape of the dose curve; as a rule, active = well fitted inhibition curve with a large enough effect; inconclusive = small, poorly fitted or top-dose-only effect; inactive = flat fitted curve, though single readings scatter. A potency beside an inconclusive call is a rough fit, not a confirmed value.
Also: nearly all actives have a fitted effect of over 30% in size.
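For activity, negative = inhibition in this document: plate controls were vehicle for no effect and no enzyme for full effect.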
Potency is read from the fitted curve at half-maximal effect.

Amino acid sequences for entries named in this document (tags omitted). A change or cut given only in a name is not applied to a line headed by its entry.
UniProt P46063: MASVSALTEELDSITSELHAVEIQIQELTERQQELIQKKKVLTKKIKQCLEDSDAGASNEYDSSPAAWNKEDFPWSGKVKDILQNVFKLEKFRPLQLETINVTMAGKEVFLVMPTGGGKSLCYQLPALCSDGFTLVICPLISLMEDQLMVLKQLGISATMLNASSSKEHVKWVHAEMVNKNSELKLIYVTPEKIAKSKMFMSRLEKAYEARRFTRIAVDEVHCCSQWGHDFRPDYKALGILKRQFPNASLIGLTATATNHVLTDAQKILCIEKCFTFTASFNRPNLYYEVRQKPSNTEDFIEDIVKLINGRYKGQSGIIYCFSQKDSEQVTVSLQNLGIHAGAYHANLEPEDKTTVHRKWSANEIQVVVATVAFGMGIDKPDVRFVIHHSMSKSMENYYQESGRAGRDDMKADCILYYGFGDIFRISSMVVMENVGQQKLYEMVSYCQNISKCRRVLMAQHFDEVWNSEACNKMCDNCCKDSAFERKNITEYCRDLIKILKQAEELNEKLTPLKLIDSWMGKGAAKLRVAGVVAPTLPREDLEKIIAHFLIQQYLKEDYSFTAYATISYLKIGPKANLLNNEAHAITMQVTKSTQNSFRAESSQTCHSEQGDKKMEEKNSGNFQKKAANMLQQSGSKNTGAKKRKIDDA

These molecules were tested against ATP-dependent DNA helicase Q1 (Homo sapiens) (UniProt P46063) (assay: qHTS Assay for Inhibitors of RecQ-Like Dna Helicase 1 (RECQ1)). Details: RECQ1 DNA unwinding, red fluorescence kinetic read; activity, negative = inhibition: at 57.3 µM (top of the series); series mostly up to 57.3 µM.
How it was run: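 50 nM RECQ1T1 preincubated 15 min with compound in Tris pH 8.0 buffer with MgCl2, DTT, Tween-20 and 2.5 ug/ml poly(dI-dC); started with 200 nM TAMRA/BHQ-2 forked duplex and 2 mM ATP. Unwinding read as fluorescence (525/598 nm), two reads 2 h apart.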
For `O=C1NC(=S)SC1=C1CCCC1`, the Potency was active: 7.94 µM.
For `Cc1cnc(CNc2ncnc3ccc(-c4ccc(N(C)C)cc4)cc23)cn1`, the Potency was active: 25.1 µM.
In the case of `O=C(Nc1ccc(S(=O)(=O)Nc2nccs2)cc1)c1cc(-c2ccccc2)nc2ccccc12`, the Potency is reported as inconclusive: 35.5 µM [inhibitor, single point].
`O=C(NC1CC1)c1cc(-c2ccco2)nc2ccccc12` was tested, and the Potency was active: 20 µM.
In the case of `CCN1/C(=C/c2ccc3cc(C)ccc3[n+]2CC)Sc2cc(C)ccc21`, the Potency is reported as inconclusive: 39.8 µM [inhibitor, single point].
`O=C(CSc1nc(-c2ccc(F)cc2)cs1)NC(=O)NCc1ccco1` was tested, and the Potency was active: 35.5 µM.
In the case of `O=C1c2ccccc2C(=O)c2c(O)c(O)cc(O)c21`, the Potency is reported as active: 3.98 µM and active: 6.31 µM.
In the case of `C=CC1=C(C)C2=Cc3c(C=C)c(C)c4[n]3[Sn+2][n]3c(c(C)c(CCC(=O)O)c3=CC3=NC(=C4)C(C)=C3CCC(=O)O)=CC1=N2`, the Potency is reported as active: 39.8 µM.
`NNC(=O)c1ccc(COc2ccc3c(c2)CCC3)o1` was tested, and the Potency was inconclusive: 39.8 µM [inhibitor, single point].
`O=C(/C=C/c1ccco1)N(c1ccccn1)c1ccccn1` was tested, and the Potency was inconclusive: 39.8 µM [inhibitor, single point].
In the case of `CCC(C)Cn1c(O)cc2nn(-c3nc4ccccc4s3)c(=O)c-2c1C` (configuration not stated), the Potency is reported as inconclusive: 35.5 µM [inhibitor, single point].
For `Cc1cccc(-n2c(=O)c(C#N)cc3c(=O)n4ccccc4nc32)c1`, the “activity, negative = inhibition” value was inactive: 3.54%.
`COC(=O)c1c(OC)cc2c(c1C)Oc1c(Cl)c(O)c(Cl)c(C)c1C(=O)O2` was tested, and the “activity, negative = inhibition” value was inactive: -10.5%.
In the case of `O=C(O)c1ccc(COc2ccccc2/C=C2/NC(=O)N(c3cccc(Cl)c3)C2=O)cc1`, the Potency is reported as inconclusive: 6.31 µM [inhibitor, single point].
`O=C(COc1ccc([N+](=O)[O-])cc1)Nc1nnc(-c2cccnc2)s1` was tested, and the Potency was inconclusive: 39.8 µM [inhibitor, single point].
With `CC(=O)NC1=NN(C(C)=O)C(C)(CC(=O)OC(C)(C)C)S1` (configuration not stated) the “activity, negative = inhibition” value was inactive: 0.145%.
`Cc1cc(NC(=O)CN2C(=O)/C(=C/c3cccc(Br)c3)SC2=S)no1` was tested, and the Potency was inconclusive: 10 µM [inhibitor, single point].
With `CC(/C=C1\SC(=O)N(CCCC(=O)O)C1=O)=C\c1ccccc1` the “activity, negative = inhibition” value was inactive: -5.68%.
For `Cc1noc(C)c1C(=O)NC1CCCc2ccccc21` (configuration not stated), the Potency was inconclusive: 1.41 µM [inhibitor, full curve].
With `O=C1OC(c2ccc(F)cc2)=C/C1=C\c1ccc([N+](=O)[O-])o1` the Potency was active: 22.4 µM.
In the case of `Cc1cccc(NC(=O)CSc2nc3ccccc3c3nc(CCc4c(C)n[nH]c4C)nn23)c1`, the Potency is reported as inconclusive: 39.8 µM [inhibitor, partial curve].
In the case of `Cc1ccc2ccc3cccc4ccc1c2c34`, the “activity, negative = inhibition” value is reported as inactive: -6.85%.
In the case of `Cc1c(C#N)c(N=CN(C)C)c(C(=O)c2ccc(Br)cc2)n1-c1ccccc1`, the Potency is reported as inconclusive: 0.158 µM [inhibitor, full curve, poor fit].
For `O=C(c1cc(-c2cccc(O)c2)on1)N1CCN(C(c2ccccc2)c2ccccc2)CC1`, the Potency was inconclusive: 10 µM [inhibitor, full curve, poor fit].
In the case of `O=C(/C=C/c1ccc(O)c(O)c1)O[C@H](Cc1ccc(O)c(O)c1)C(=O)O`, the Potency is reported as active: 3.55 µM.
`CCCN(CCO)CCCc1ccccc1` was tested, and the “outcome” value was “inactive”.
For `S=c1[nH]nc(-c2n[nH]c3c2CCC3)n1/N=C/C=C/c1ccco1`, the Potency was active: 12.6 µM.
`NC1=NC[C@H](CC2CCCCC2)N1CCc1cc(C(F)(F)F)cc(C(F)(F)F)c1` was tested, and the Potency was inconclusive: 3.55 µM [inhibitor, single point].
In the case of `Cn1cc(/C=C2\SC(=S)N(NC(=O)c3ccccc3)C2=O)c2ccccc21`, the Potency is reported as active: 31.6 µM.
In the case of `Cc1ccc(NC(=O)c2cccs2)cc1NC(=O)c1cccnc1`, the “activity, negative = inhibition” value is reported as inactive: -3.88%.
In the case of `CCN1CCC(NC(=O)Nc2ccc(F)cc2)CC1`, the Potency is reported as inconclusive: 39.8 µM [inhibitor, single point].
In the case of `Cc1ccc(NC(=S)NCCCN2CCOCC2)cc1`, the Potency is reported as inconclusive: 3.98 µM [inhibitor, partial curve].
With `COc1ccc(C(=O)N/C(=C\c2ccco2)C(=O)NCc2cccnc2)cc1` the Potency was inconclusive: 39.8 µM [inhibitor, single point].
In the case of `CCOC(=O)/C(=C/C=C1\Sc2cc(OCC)c(OCC)cc2N1CC)C(C)=O`, the Potency is reported as active: 10 µM.
In the case of `COc1ccc(-c2ncnc(C(F)(F)F)c2-c2csc(C)n2)c(O)c1`, the Potency is reported as inconclusive: 0.158 µM [inhibitor, partial curve, poor fit].
With `O=C(O)c1ccc2c(c1)C(=O)N(c1cccc(C(=O)/C=C/c3ccccc3)c1)C2=O` the Potency was active: 6.31 µM.
With `COc1ccc(-c2nn(-c3ccccc3)cc2/C=N/NC(=O)c2ccc(Br)o2)cc1` the Potency was inconclusive: 3.55 µM [inhibitor, full curve].
With `N#C/C=C(/N)c1ccc(Br)cc1` the Potency was inconclusive: 35.5 µM [inhibitor, single point].
For `CCCCN(CC)c1nc(C)nc2c1c(C)c(C)n2-c1c(C)cc(C)cc1C`, the “activity, negative = inhibition” value was inactive: -5.47%.
In the case of `N/C(=N\NC(=O)c1ccccc1Cl)c1cc2ccccc2oc1=O`, the Potency is reported as active: 28.2 µM.
For `O=C(O)c1ccccc1/C=N/Nc1ccc(S(=O)(=O)N2CCCC2)cc1[N+](=O)[O-]`, the “outcome” value was “inactive”.
`O=C(COc1ccc2ccccc2c1)NNC(=O)Cc1cccc2ccccc12` was tested, and the Potency was inconclusive: 6.31 µM [inhibitor, single point].
`O=C(/C=C/c1cccnc1)c1ccc(NC(=O)c2cccc(Br)c2)cc1` was tested, and the “activity, negative = inhibition” value was inactive: -7.41%.
For `COc1cc(/C=N/NC(=O)c2cccc([N+](=O)[O-])c2)cc(OC)c1O`, the “activity, negative = inhibition” value was inactive: -10.6%.
With `COC(=O)c1nn(-c2ccc(OC)cc2)c(=O)cc1NN` the Potency was inconclusive: 39.8 µM [inhibitor, single point].
For `C[C@H]1Cc2c(-c3ccccc3)nc3c(c2CO1)CN(C(=O)Nc1cccc(C#N)c1)CC3`, the Potency was inconclusive: 0.794 µM [inhibitor, single point].
